From the supplement of paper PMC5393889
The other results are listed elsewhere or left out.

The compounds below were run on Caenorhabditis elegans N2 (assay: aldicarb interaction hit call (worm growth perturbed in combination with 10 uM aldicarb in both replicates, no effect as single agent) (binary (1 = interacts)); higher = interacts with aldicarb (growth perturbed)). Settings: first compound 1.5 µM; aldicarb concentration 10 µM; 6 days; 20 °C.
Cl.Clc1ccc(-c2ccc(CNC3CC3)o2)c(Cl)c1 [wact-614] + CNC(=O)O/N=C/C(C)(C)SC [aldicarb] was tested, and the “aldicarb interaction hit call” value was inactive: 0.
With O=C(Nc1ccc(C(F)(F)F)cc1Cl)c1cccs1 [wact-145] + CNC(=O)O/N=C/C(C)(C)SC [aldicarb] the “aldicarb interaction hit call” value was inactive: 0.
CSc1cc(-c2ccccc2)ncn1 [wact-197] + CNC(=O)O/N=C/C(C)(C)SC [aldicarb] was tested, and the “aldicarb interaction hit call” value was inactive: 0.
CCOc1ccc(/C=C/[N+](=O)[O-])cc1 [wact-385] + CNC(=O)O/N=C/C(C)(C)SC [aldicarb] was tested, and the “aldicarb interaction hit call” value was inactive: 0.
CC(Oc1ccc(Br)cc1)C(=O)O/N=C(\N)c1ccccn1 (stereo not drawn) [wact-541] + CNC(=O)O/N=C/C(C)(C)SC [aldicarb] was tested, and the “aldicarb interaction hit call” value was inactive: 0.
In the case of Cc1ccccc1C(=O)N1CCN(c2ccc(NC(=O)c3cc4ccccc4o3)cc2)CC1 [wact-90] + CNC(=O)O/N=C/C(C)(C)SC [aldicarb], the “aldicarb interaction hit call” value is reported as inactive: 0.
In the case of Clc1ccc(CSc2ncccn2)cc1 [wact-74] + CNC(=O)O/N=C/C(C)(C)SC [aldicarb], the “aldicarb interaction hit call” value is reported as inactive: 0.
OCC1CCCN(Cc2ccc3ccc4cccc5ccc2c3c45)C1 (stereo not drawn) [wact-219] + CNC(=O)O/N=C/C(C)(C)SC [aldicarb] was tested, and the “aldicarb interaction hit call” value was inactive: 0.
With O=c1cc(C(Cl)(Cl)Cl)oc2ccc(Cl)cc12 [wact-424] + CNC(=O)O/N=C/C(C)(C)SC [aldicarb] the “aldicarb interaction hit call” value was inactive: 0.
With O=C(c1cc(Cl)ccc1Cl)N1CCN(c2cccc(C(F)(F)F)c2)CC1 [wact-65] + CNC(=O)O/N=C/C(C)(C)SC [aldicarb] the “aldicarb interaction hit call” value was inactive: 0.
c1ccc(CCn2nnc3ccccc32)cc1 [wact-515] + CNC(=O)O/N=C/C(C)(C)SC [aldicarb] was tested, and the “aldicarb interaction hit call” value was inactive: 0.
For COc1cc(C(=O)NC(=S)Nc2cc(Cl)ccc2Cl)cc(OC)c1OC [wact-462] + CNC(=O)O/N=C/C(C)(C)SC [aldicarb], the “aldicarb interaction hit call” value was inactive: 0.
With COc1ccc(OC)c(N(CC(=O)NC2CC3CCC2C3)S(C)(=O)=O)c1 (stereo not drawn) [wact-465] + CNC(=O)O/N=C/C(C)(C)SC [aldicarb] the “aldicarb interaction hit call” value was inactive: 0.
Cc1cccc(-c2nc(-c3ccccc3)no2)c1 [wact-506] + CNC(=O)O/N=C/C(C)(C)SC [aldicarb] was tested, and the “aldicarb interaction hit call” value was inactive: 0.
With COc1cc(OC)cc(C(=O)N2CCC(C(=O)Nc3ccc(Cl)c(C(F)(F)F)c3)CC2)c1 [wact-491] + CNC(=O)O/N=C/C(C)(C)SC [aldicarb] the “aldicarb interaction hit call” value was inactive: 0.
In the case of Cc1ccc(-c2cc(-c3ccccc3Cl)[nH]n2)c(O)c1 [wact-623] + CNC(=O)O/N=C/C(C)(C)SC [aldicarb], the “aldicarb interaction hit call” value is reported as inactive: 0.
For Ic1ccc(OCCSc2ncccn2)cc1 [wact-16] + CNC(=O)O/N=C/C(C)(C)SC [aldicarb], the “aldicarb interaction hit call” value was inactive: 0.
CC(C)SCCCCCOc1ccc([N+](=O)[O-])cc1 [wact-593] + CNC(=O)O/N=C/C(C)(C)SC [aldicarb] was tested, and the “aldicarb interaction hit call” value was inactive: 0.
With CCCC(=O)NC(=S)Nc1ccc(Cl)c(Cl)c1 [wact-370] + CNC(=O)O/N=C/C(C)(C)SC [aldicarb] the “aldicarb interaction hit call” value was inactive: 0.
CC1(CCC(=O)N2CCC3(CCCN(Cc4cccc(F)c4F)C3)C2)CC1 (stereo not drawn) [wact-272] + CNC(=O)O/N=C/C(C)(C)SC [aldicarb] was tested, and the “aldicarb interaction hit call” value was inactive: 0.
With Clc1ccc(N2CCN(N=Cc3cccnc3)CC2)cc1 [wact-598] + CNC(=O)O/N=C/C(C)(C)SC [aldicarb] the “aldicarb interaction hit call” value was inactive: 0.
In the case of O=C(c1cccs1)N1CCN(c2ccc([N+](=O)[O-])cc2)CC1 [wact-364] + CNC(=O)O/N=C/C(C)(C)SC [aldicarb], the “aldicarb interaction hit call” value is reported as inactive: 0.
With COc1ccc(-c2n[nH]cc2CNC(C)c2ccc(Cl)cc2)c(F)c1 (stereo not drawn) [wact-255] + CNC(=O)O/N=C/C(C)(C)SC [aldicarb] the “aldicarb interaction hit call” value was inactive: 0.
For CCCNC(=O)c1cccc(Oc2ccccc2)c1 [wact-581] + CNC(=O)O/N=C/C(C)(C)SC [aldicarb], the “aldicarb interaction hit call” value was inactive: 0.
In the case of CC(C)NCCCCOc1ccc(Cl)c(Cl)c1.O=C(O)C(=O)O [wact-68] + CNC(=O)O/N=C/C(C)(C)SC [aldicarb], the “aldicarb interaction hit call” value is reported as inactive: 0.
With CCSc1nnc(-c2ccc(Cl)cc2Cl)o1 [wact-4] + CNC(=O)O/N=C/C(C)(C)SC [aldicarb] the “aldicarb interaction hit call” value was inactive: 0.
For Cc1ccc2[nH]c3c(c2c1)CCCC3/N=C/c1ccc(F)cc1 (stereo not drawn) [wact-42] + CNC(=O)O/N=C/C(C)(C)SC [aldicarb], the “aldicarb interaction hit call” value was inactive: 0.
In the case of COc1ccc2cc(C(C)NCc3c[nH]nc3-c3ccc(OC)c(F)c3)ccc2c1 (stereo not drawn) [wact-243] + CNC(=O)O/N=C/C(C)(C)SC [aldicarb], the “aldicarb interaction hit call” value is reported as inactive: 0.
